# In patent publication US9060967B2, “Stable aqueous formulation of (E)-4-carboxystyryl-4-chlorobenzyl sulfone” (ONCONOVA THERAPEUTICS, INC, priority 2010, dated 2015):
# At least one compound was matched to its structure with a doubt left.
# System: mice
# Assay: animal efficacy studies, pre-treatment before lethal dose of ionizing radiation
# Assay type: in vivo
# Conditions: pre-treatment by intravenous, subcutaneous, intraperitoneal or oral route
structure (smiles),measurement,value
"O=C([O-])c1ccc(/C=C/S(=O)(=O)Cc2ccc(Cl)cc2)cc1.[Na+] [ON 01210.Na, (E)-4-Carboxystyryl-4-chlorobenzylsulfone, Sodium Salt]",protection from lethal dose of ionizing radiation,protection of mice from a lethal dose of ionizing radiation
